Test results: PubChem BioAssay (EPA / NIEHS)
The inconclusive results got no clear call from the source; some entries with a clear call stand among them for comparison. For some assays here: A potency beside an inconclusive call is a rough fit, not a confirmed value. Active and inactive are the calls of the source. Rule for the calls: active = hit-call score of the fitted dose curve at least 0.9, where 1 is the maximum; inconclusive = response in the unintended direction; inactive = score below 0.9.

test: CCTE_Shafer_MEA_acute_LDH: CCTE's Lactate Dehydrogenase Assay for Cytotoxicity in the Neural Acute Assay, Shafer Lab (AID 2284086);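 note: active means LDH release rises above DMSO vehicle level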
Procedure, shortened: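 Medium from rat cortical neuron MEA cultures sampled right after the 40 min compound-exposure recording; released LDH measured by absorbance at 490 nm. Analyzed as signal gain relative to DMSO.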

Structure (SMILES)	AC50	outcome
CCCCOC(=O)c1ccc(O)cc1	inconclusive: 20 µM	–
Cc1cn([C@H]2C[C@H](N=[N+]=[N-])[C@@H](CO)O2)c(=O)[nH]c1=O	inconclusive: 20 µM	–
Cc1ccc(-c2cc(C(F)(F)F)nn2-c2ccc(S(N)(=O)=O)cc2)cc1	inconclusive: 20 µM	–
CSc1ccc(Oc2ccc(S(N)(=O)=O)cc2CN(C)C)cc1C	inconclusive: 20 µM	–
CCC(=C(c1ccc(O)cc1)c1ccc(OCCN(C)C)cc1)c1ccccc1	–	inactive
CN(C)C(=O)C1(N2CCCCC2)CCN(CC[C@@]2(c3ccc(Cl)c(Cl)c3)CN(C(=O)c3ccccc3)CCO2)CC1	–	inactive
C1CNCCN1	inconclusive: 20 µM	–
CC(C)(C)c1cc(C(C)(C)C)c(O)c(C(C)(C)C)c1	inconclusive: 20 µM	–
C=CCOC(=O)c1ccccc1C(=O)OCC=C	inconclusive: 20 µM	–
CN1CCN(c2ccccc2/C=C2\SCCN(c3ccc(Cl)c(Cl)c3)C2=O)CC1	–	inactive
CC(C)=CCCC(C)=CC=O	–	inactive
CCCCCCCCCCCCCCCCCC(=O)O	inconclusive: 10 µM	–
Nc1ccc(N)c(Cl)c1	–	inactive

Quoted at random: 2 entries already listed
Structure (SMILES)	AC50	outcome
CN(C)C(=O)C1(N2CCCCC2)CCN(CC[C@@]2(c3ccc(Cl)c(Cl)c3)CN(C(=O)c3ccccc3)CCO2)CC1	–	inactive
CN1CCN(c2ccccc2/C=C2\SCCN(c3ccc(Cl)c(Cl)c3)C2=O)CC1	–	inactive

test: TAMU_HCS_1.5hr_SingleDonor1434_Cytotoxicity: Cytotoxicity Assessment using High-content Screening (HCS) Fluorescent Imaging for the Texas A&M University (TAMU) 1.5-hr Human Induced Pluripotent Stem Cell (iPSC)-derived Cardiotoxicity Assay (AID 2284234)
Procedure, shortened: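 Human iPSC-derived cardiomyocytes dosed at 0.2, 1, 10, 100 uM final (0.5% DMSO) for 90 min at 37 C. Hoechst 33342-stained nuclei counted by 10x high-content imaging; POD is EC10, a 10% drop in total cell count versus DMSO.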

Structure (SMILES)	outcome
CC(C)(c1ccc(O)cc1)c1ccc(O)cc1	inactive
c1ccc2ccccc2c1	inactive
COCCO	inactive
